Patent US20230101273A1, “MESOIONIC INSECTICIDES” (FMC Corporation, priority 2020, published 2023)
Where a name gives a salt, the structure may show the parent alone. Some results were stated once for a whole list of compounds, not compound by compound.

Legend:
[1] = tested on: fall armyworm (Spodoptera frugiperda (J. E. Smith)); experiment: Test B: control of fall armyworm on corn plant, spray; assay type: in vivo; details: 6 days, 1-day-old larvae on corn plant
[2] = tested on: diamondback moth (Plutella xylostella (L.)); experiment: Test A: control of diamondback moth on mustard plant, spray; assay type: in vivo; details: 6 days, neonate larvae on mustard plant

Measured: control efficacy: feeding damage (40% or less feeding damage and/or 100% mortality)

CCC#Cc1cccc(-c2c([O-])[n+](Cc3cnc(Cl)s3)c3c(C)cccn3c2=O)c1 [Compound 2, 3-[3-(1-butyn-1-yl)phenyl]-1-[(2-chloro-5-thiazolyl)methyl]-2-hydroxy-9-methyl-4-oxo-4H-pyrido[1,2-a]pyrimidinium inner salt]
≤ 40%: [1]; sprayed at 0.4 ppm | [1]; sprayed at 2 ppm | [1]; sprayed at 10 ppm | [2]; sprayed at 0.4 ppm | [2]; sprayed at 2 ppm | [2]; sprayed at 10 ppm

Cc1cccn2c(=O)c(-c3cc(Cl)cc(C#Cc4ccccc4)c3)c([O-])[n+](Cc3cnc(Cl)s3)c12 [Compound 47]
≤ 40%: [1]; sprayed at 2 ppm | [1]; sprayed at 10 ppm | [2]; sprayed at 2 ppm | [2]; sprayed at 10 ppm

Cc1cccn2c(=O)c(-c3cccc(C#CC4CC4)c3)c([O-])[n+](Cc3cnc(Cl)s3)c12 [Compound 37, 1-[(2-chloro-5-thiazolyl)methyl]-3-[3-(2-cyclopropylethynyl)phenyl]-2-hydroxy-9-methyl-4-oxo-4H-pyrido[1,2-a]pyrimidinium inner salt]
≤ 40%: [1]; sprayed at 0.4 ppm | [1]; sprayed at 2 ppm | [1]; sprayed at 10 ppm | [2]; sprayed at 0.4 ppm | [2]; sprayed at 2 ppm | [2]; sprayed at 10 ppm

COc1ccc(-c2c([O-])[n+](Cc3cnc(Cl)s3)c3c(C)cccn3c2=O)cc1C#CC(C)C [Compound 57]
≤ 40%: [1]; sprayed at 2 ppm | [1]; sprayed at 10 ppm | [2]; sprayed at 0.4 ppm | [2]; sprayed at 2 ppm | [2]; sprayed at 10 ppm

Cc1cccn2c(=O)c(-c3cccc(C#CC(C)C)c3)c([O-])[n+](Cc3cnc(Cl)s3)c12 [Compound 44, 1-[(2-chloro-5-thiazolyl)methyl]-2-hydroxy-9-methyl-3-[3-(3-methyl-1-butyn-1-yl)phenyl]-4-oxo-4H-pyrido[1,2-a]pyrimidinium inner salt]
≤ 40%: [1]; sprayed at 0.4 ppm | [1]; sprayed at 2 ppm | [1]; sprayed at 10 ppm | [2]; sprayed at 0.4 ppm | [2]; sprayed at 2 ppm | [2]; sprayed at 10 ppm

Cc1cccn2c(=O)c(-c3cc(F)cc(C#CC(C)C)c3)c([O-])[n+](Cc3cnc(Cl)s3)c12 [Compound 21]
≤ 40%: [1]; sprayed at 0.4 ppm | [1]; sprayed at 2 ppm | [1]; sprayed at 10 ppm | [2]; sprayed at 0.4 ppm | [2]; sprayed at 2 ppm | [2]; sprayed at 10 ppm

CCOc1cc(C#CC2CC2)cc(-c2c([O-])[n+](Cc3cnc(Cl)s3)c3c(C)cccn3c2=O)c1 [Compound 51, 1-[(2-chloro-5-thiazolyl)methyl]-3-[3-(2-cyclopropylethynyl)-5-ethoxyphenyl]-2-hydroxy-9-methyl-4-oxo-4H-pyrido[1,2-a]pyrimidinium inner salt]
≤ 40%: [1]; sprayed at 0.4 ppm | [1]; sprayed at 2 ppm | [1]; sprayed at 10 ppm | [2]; sprayed at 0.4 ppm | [2]; sprayed at 2 ppm | [2]; sprayed at 10 ppm

Cc1cccn2c(=O)c(-c3cc(C#CC(C)C)cc(C(F)(F)F)c3)c([O-])[n+](Cc3cnc(Cl)s3)c12 [Compound 26]
≤ 40%: [1]; sprayed at 2 ppm | [1]; sprayed at 10 ppm | [2]; sprayed at 0.4 ppm | [2]; sprayed at 2 ppm | [2]; sprayed at 10 ppm

CCC#Cc1cc(Cl)cc(-c2c([O-])[n+](Cc3cnc(Cl)s3)c3c(C)cccn3c2=O)c1 [Compound 1, 3-[3-(1-butyn-1-yl)-5-chlorophenyl]-1-[(2-chloro-5-thiazolyl)methyl]-2-hydroxy-9-methyl-4-oxo-4H-pyrido[1,2-a]pyrimidinium inner salt]
≤ 40%: [1]; sprayed at 0.4 ppm | [1]; sprayed at 2 ppm | [1]; sprayed at 10 ppm | [2]; sprayed at 0.4 ppm | [2]; sprayed at 2 ppm | [2]; sprayed at 10 ppm

Cc1cccn2c(=O)c(-c3cc(C#CC4CC4)cc(C(C)C)c3)c([O-])[n+](Cc3cnc(Cl)s3)c12 [Compound 14]
≤ 40%: [1]; sprayed at 0.4 ppm | [1]; sprayed at 2 ppm | [1]; sprayed at 10 ppm | [2]; sprayed at 0.4 ppm | [2]; sprayed at 2 ppm | [2]; sprayed at 10 ppm

Cc1ccc(-c2c([O-])[n+](Cc3cnc(Cl)s3)c3c(C)cccn3c2=O)cc1C#CC(C)C [Compound 86]
≤ 40%: [1]; sprayed at 0.4 ppm | [1]; sprayed at 2 ppm | [1]; sprayed at 10 ppm | [2]; sprayed at 0.4 ppm | [2]; sprayed at 2 ppm | [2]; sprayed at 10 ppm

CC#Cc1cc(Cl)cc(-c2c([O-])[n+](Cc3cnc(Cl)s3)c3c(C)cccn3c2=O)c1 [Compound 62]
≤ 40%: [2]; sprayed at 2 ppm | [2]; sprayed at 10 ppm

COc1cc(C#CC(C)C)cc(-c2c([O-])[n+](Cc3cnc(Cl)s3)c3c(C)cccn3c2=O)c1 [Compound 18]
≤ 40%: [1]; sprayed at 0.4 ppm | [1]; sprayed at 2 ppm | [1]; sprayed at 10 ppm | [2]; sprayed at 0.4 ppm | [2]; sprayed at 2 ppm | [2]; sprayed at 10 ppm

Cc1cccn2c(=O)c(-c3cc(C#CC(C)(C)C)cc(C(C)C)c3)c([O-])[n+](Cc3cnc(Cl)s3)c12 [Compound 5]
≤ 40%: [1]; sprayed at 2 ppm | [1]; sprayed at 10 ppm
